# Values of other authors as cited in patent US20130216579A1, “METHODS AND COMPOSTITIONS FOR GENE EDITING OF A PATHOGEN” (priority 2012, published 2013).
# Tested on: P. falciparum
# Conditions: CQ resistant parasites; read-out: IC50 values that typify in vitro CQ resistance; cited from earlier work
compound,measurement,value
"CCN(CC)CCCC(C)Nc1ccnc2cc(Cl)ccc12 (stereo not shown) [CQ, chloroquine]",IC50,80 to 100 nM
